# Test results published in article PMC7206012.
# Amino acid sequences for entries named in this document (tags omitted). A change or cut given only in a name is not applied to a line headed by its entry.
# UniProt Q9P219: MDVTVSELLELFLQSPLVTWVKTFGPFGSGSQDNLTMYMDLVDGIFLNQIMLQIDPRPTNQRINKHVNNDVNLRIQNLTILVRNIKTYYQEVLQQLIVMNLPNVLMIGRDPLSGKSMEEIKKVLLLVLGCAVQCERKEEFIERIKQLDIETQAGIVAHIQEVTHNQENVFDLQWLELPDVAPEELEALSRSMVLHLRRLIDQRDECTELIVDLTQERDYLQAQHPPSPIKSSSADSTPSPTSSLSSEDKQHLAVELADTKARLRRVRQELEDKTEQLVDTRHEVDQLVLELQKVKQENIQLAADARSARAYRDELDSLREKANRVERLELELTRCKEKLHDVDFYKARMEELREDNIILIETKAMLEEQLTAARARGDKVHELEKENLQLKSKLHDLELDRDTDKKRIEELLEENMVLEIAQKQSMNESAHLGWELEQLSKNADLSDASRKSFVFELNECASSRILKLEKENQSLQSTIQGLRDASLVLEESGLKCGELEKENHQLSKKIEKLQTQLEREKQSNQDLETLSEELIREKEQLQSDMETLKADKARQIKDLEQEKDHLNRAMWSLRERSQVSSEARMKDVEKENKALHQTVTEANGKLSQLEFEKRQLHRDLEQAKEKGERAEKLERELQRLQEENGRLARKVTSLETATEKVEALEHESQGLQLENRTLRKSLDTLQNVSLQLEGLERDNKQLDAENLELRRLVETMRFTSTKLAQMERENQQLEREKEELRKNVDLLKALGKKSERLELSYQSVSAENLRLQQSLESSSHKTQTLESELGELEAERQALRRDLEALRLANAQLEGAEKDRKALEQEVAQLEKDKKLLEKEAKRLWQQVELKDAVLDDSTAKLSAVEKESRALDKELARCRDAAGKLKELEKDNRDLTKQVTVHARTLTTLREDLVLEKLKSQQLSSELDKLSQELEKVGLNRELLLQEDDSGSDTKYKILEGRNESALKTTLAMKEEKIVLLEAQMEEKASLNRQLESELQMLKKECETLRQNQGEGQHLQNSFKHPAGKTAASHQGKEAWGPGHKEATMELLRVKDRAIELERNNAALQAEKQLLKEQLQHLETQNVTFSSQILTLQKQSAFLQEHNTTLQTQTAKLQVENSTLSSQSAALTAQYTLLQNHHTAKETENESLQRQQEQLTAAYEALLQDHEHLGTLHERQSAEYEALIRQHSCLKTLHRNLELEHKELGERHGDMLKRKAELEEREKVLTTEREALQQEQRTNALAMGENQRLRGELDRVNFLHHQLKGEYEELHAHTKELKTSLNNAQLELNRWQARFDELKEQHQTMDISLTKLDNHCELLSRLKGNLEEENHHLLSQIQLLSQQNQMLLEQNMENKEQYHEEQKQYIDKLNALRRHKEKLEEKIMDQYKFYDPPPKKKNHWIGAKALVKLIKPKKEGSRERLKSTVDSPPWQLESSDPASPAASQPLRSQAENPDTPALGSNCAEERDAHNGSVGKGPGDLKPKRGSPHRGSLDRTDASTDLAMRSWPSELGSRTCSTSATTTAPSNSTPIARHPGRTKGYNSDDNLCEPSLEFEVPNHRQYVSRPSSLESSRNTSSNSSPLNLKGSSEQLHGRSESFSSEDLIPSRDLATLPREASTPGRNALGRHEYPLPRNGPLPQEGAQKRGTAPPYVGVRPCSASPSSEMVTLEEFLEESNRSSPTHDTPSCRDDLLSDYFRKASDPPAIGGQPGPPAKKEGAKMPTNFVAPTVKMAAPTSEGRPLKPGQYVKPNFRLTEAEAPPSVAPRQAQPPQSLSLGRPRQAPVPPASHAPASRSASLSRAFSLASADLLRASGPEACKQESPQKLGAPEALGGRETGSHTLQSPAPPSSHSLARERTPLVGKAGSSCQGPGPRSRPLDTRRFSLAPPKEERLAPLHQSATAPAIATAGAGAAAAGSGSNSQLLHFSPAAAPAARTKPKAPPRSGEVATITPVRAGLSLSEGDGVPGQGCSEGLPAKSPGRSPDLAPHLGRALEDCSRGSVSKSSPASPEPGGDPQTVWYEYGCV
# UniProt Q96RN5: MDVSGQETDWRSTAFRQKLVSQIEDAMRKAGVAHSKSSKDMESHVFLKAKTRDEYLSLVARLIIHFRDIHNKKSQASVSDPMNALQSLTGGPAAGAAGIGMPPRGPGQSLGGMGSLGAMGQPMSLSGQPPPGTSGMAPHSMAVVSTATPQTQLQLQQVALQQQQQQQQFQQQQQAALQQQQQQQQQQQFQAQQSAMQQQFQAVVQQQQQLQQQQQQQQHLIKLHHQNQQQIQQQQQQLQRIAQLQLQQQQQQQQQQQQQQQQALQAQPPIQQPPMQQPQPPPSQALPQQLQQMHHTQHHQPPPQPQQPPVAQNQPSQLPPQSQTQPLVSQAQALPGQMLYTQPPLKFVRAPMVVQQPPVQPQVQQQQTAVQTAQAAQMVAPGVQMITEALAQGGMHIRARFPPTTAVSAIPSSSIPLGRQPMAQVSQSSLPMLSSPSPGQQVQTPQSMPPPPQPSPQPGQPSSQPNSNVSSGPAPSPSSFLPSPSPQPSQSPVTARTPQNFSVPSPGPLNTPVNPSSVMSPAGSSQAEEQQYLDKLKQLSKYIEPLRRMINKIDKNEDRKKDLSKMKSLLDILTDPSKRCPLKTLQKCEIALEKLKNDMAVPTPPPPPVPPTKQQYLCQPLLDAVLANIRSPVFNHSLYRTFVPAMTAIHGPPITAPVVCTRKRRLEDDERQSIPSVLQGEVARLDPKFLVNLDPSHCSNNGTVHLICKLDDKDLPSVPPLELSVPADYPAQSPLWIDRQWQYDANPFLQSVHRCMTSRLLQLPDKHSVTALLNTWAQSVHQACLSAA
# These are yes or no findings as the source states them, for the method shown. Binding seen in cells or lysates may run through a third protein. Here binding means that the protein was enriched with, or labelled near, the bait; the list need not be complete. Where a sequence is shown, tags or fusion partners need not be part of it.
# Target: T1, triple epitope (S-peptide, FLAG, and streptavidin-binding peptide)-tagged TRIM11 (human) (UniProt Q96F44)
# T1 sequence: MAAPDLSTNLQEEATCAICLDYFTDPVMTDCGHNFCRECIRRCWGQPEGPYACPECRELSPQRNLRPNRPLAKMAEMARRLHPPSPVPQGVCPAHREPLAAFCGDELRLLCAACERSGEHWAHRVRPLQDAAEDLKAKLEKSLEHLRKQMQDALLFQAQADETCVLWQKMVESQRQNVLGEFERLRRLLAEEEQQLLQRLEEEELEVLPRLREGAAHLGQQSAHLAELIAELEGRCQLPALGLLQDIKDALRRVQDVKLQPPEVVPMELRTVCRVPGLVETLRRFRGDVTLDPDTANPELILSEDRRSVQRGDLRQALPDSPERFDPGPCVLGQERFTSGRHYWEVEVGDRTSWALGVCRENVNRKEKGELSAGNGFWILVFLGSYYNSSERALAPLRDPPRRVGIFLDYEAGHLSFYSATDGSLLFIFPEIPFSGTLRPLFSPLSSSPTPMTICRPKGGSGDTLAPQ
# Experiment: affinity purification with mass spectrometry; tandem affinity purification of SFB-TRIM11 from CNE2 lysate (NETN buffer): streptavidin beads, biotin elution, S protein beads; SDS-PAGE bands analysed by mass spectrometry
row,binding,Substance
1,binds,Daple (endogenous) (from UniProt Q9P219 1-2028)
2,binds,ARC105 (from UniProt Q96RN5)
